{"source": "PubChem BioAssay AID504786 (Drosophila RNAi Screening Center, 2011)", "purpose": "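Positive regulators of HIF-driven reporter output in Drosophila cells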 (primary screen)", "system": "Drosophila S2 cells with a stable HIF luciferase reporter", "reagent": "long dsRNA against Drosophila genes, about 0.2 µg dsRNA per well of a 384-well plate", "timing": "three days of knock-down, then 20 h of DFO before reading", "challenge": "desferrioxamine (DFO) at 100 µM, an iron chelator that mimics hypoxia, for 20 h", "read-out": "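Firefly luciferase driven by the mouse ldh-a hypoxia-response element, measured after 20 h of 100 µM DFO; z-scores per plate, higher means more signal lost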", "reading the numbers": "z-score: higher = stronger loss of HIF reporter signal", "note": "The deposit covers about 21,000 reagents; below is a random part of those with a known target gene and a result. 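Primary screen; positive scores mean lost reporter signal, so the sign may be inverted from the usual convention.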 The numbers tell different reagents against one gene apart. Not all columns of the deposit are shown. Reagent sequences are not shown."}
{"Gene":"CG32457 (GeneID 318040)","dsRNA no.":1,"z-score, replicate 1":-0.4}
{"Gene":"CG13842 (GeneID 42685)","dsRNA no.":1,"z-score, replicate 1":-0.4}
{"Gene":"Cyp6u1 (GeneID 35608)","dsRNA no.":1,"z-score, replicate 1":-0.3}
{"Gene":"Cbs (GeneID 33081)","dsRNA no.":1,"z-score, replicate 1":-0.3}
{"Gene":"Ac76E (GeneID 40180)","dsRNA no.":1,"z-score, replicate 1":0.5}
{"Gene":"Ac76E (GeneID 40180)","dsRNA no.":2,"z-score, replicate 1":-0.3}
{"Gene":"CG6184 (GeneID 42345)","dsRNA no.":1,"z-score, replicate 1":0.3}
{"Gene":"eff (GeneID 41785)","dsRNA no.":1,"z-score, replicate 1":2.2}
{"Gene":"CG4866 (GeneID 36976)","dsRNA no.":1,"z-score, replicate 1":-0.2}
{"Gene":"Cyp9c1 (GeneID 37941)","dsRNA no.":1,"z-score, replicate 1":-0.2}
{"Gene":"CG7600 (GeneID 39267)","dsRNA no.":1,"z-score, replicate 1":-0.2}
{"Gene":"CG13022 (GeneID 39896)","dsRNA no.":1,"z-score, replicate 1":-0.2}
{"Gene":"Prosbeta1 (GeneID 46058)","dsRNA no.":1,"z-score, replicate 1":3.6}
{"Gene":"CG12814 (GeneID 41246)","dsRNA no.":1,"z-score, replicate 1":-0.3}
{"Gene":"CG12814 (GeneID 41246)","dsRNA no.":2,"z-score, replicate 1":-0.3}
{"Gene":"Hsp26 (GeneID 39075)","dsRNA no.":1,"z-score, replicate 1":-0.3}
{"Gene":"CG15253 (GeneID 34916)","dsRNA no.":1,"z-score, replicate 1":-0.1}
{"Gene":"RpS9 (GeneID 39108)","dsRNA no.":1,"z-score, replicate 1":7.8}
{"Gene":"CG6763 (GeneID 42754)","dsRNA no.":1,"z-score, replicate 1":-0.4}
{"Gene":"CG7886 (GeneID 41775)","dsRNA no.":1,"z-score, replicate 1":-0.3}
{"Gene":"ppk31 (GeneID 318575)","dsRNA no.":1,"z-score, replicate 1":-0.4}
{"Gene":"CG6665 (GeneID 36903)","dsRNA no.":1,"z-score, replicate 1":-0.3}
{"Gene":"CG5885 (GeneID 34314)","dsRNA no.":1,"z-score, replicate 1":0.4}
{"Gene":"JMJD6 (GeneID 42616)","dsRNA no.":1,"z-score, replicate 1":-0.1}
{"Gene":"cni (GeneID 34967)","dsRNA no.":1,"z-score, replicate 1":0.7}
{"Gene":"CG7824 (GeneID 43530)","dsRNA no.":1,"z-score, replicate 1":-0.4}
{"Gene":"CG14410 (GeneID 32409)","dsRNA no.":1,"z-score, replicate 1":-0.4}
{"Gene":"CG7810 (GeneID 34139)","dsRNA no.":1,"z-score, replicate 1":-0.3}
{"Gene":"CG1142 (GeneID 40894)","dsRNA no.":1,"z-score, replicate 1":-0.2}
{"Gene":"CG5050 (GeneID 35048)","dsRNA no.":1,"z-score, replicate 1":-0.3}
{"Gene":"Tig (GeneID 33896)","dsRNA no.":1,"z-score, replicate 1":-0.1}
{"Gene":"Rbp6 (GeneID 39919)","dsRNA no.":1,"z-score, replicate 1":-0.6}
{"Gene":"Rbp6 (GeneID 39919)","dsRNA no.":2,"z-score, replicate 1":0.1}
{"Gene":"Rbp6 (GeneID 39919)","dsRNA no.":3,"z-score, replicate 1":-0.2}
{"Gene":"Rbp6 (GeneID 39919)","dsRNA no.":4,"z-score, replicate 1":-0.3}
{"Gene":"Rbp6 (GeneID 39919)","dsRNA no.":5,"z-score, replicate 1":-0.3}
{"Gene":"Teh1 (GeneID 41215)","dsRNA no.":1,"z-score, replicate 1":-0.4}
{"Gene":"qkr54B (GeneID 36966)","dsRNA no.":1,"z-score, replicate 1":-0.4}
{"Gene":"Inx2 (GeneID 31646)","dsRNA no.":1,"z-score, replicate 1":-0.3}
{"Gene":"KdelR (GeneID 34427)","dsRNA no.":1,"z-score, replicate 1":-0.1}
